From patent US7094873
No constants are given. Whether binding was seen depends on the method and setting. In cells and extracts the contact can be indirect. Some binding calls cover weakened binding; strength is not graded here.

The chains behind the UniProt entries cited, without tags or fusion partners. Residues count along the entry.
UniProt P11142, residues 540-646: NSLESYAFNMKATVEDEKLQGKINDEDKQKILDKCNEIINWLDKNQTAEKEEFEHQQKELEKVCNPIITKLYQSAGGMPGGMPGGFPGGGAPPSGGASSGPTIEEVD
UniProt P25685: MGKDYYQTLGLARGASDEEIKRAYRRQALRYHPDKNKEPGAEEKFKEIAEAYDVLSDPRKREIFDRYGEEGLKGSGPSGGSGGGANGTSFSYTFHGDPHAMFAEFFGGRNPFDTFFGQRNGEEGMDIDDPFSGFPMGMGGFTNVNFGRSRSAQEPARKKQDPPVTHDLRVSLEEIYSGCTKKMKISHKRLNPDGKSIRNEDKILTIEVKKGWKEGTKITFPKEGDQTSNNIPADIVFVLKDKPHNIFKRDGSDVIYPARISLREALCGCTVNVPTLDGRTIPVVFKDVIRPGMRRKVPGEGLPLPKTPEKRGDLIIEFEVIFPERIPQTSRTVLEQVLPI

Target: GST-Hsc70 (amino acid residues 540-650) (UniProt P11142)
Assay: GST pulldown on glutathione-Sepharose beads, immunoblot

binding: binds
Substance: Human Hsp40 (Stressgen) (from UniProt P25685 1-340)
